Among the data in paper PMC5421643 are binding values, retold here.

These are yes or no findings as the source states them, for the method shown.

For experiment [1], the target named is ECD(1–432), deletion fragment of human Ecdysoneless protein (human) (UniProt O95905). Description: dynamic light scattering; purified fragment after Superdex75 into 20 mM HEPES pH 7.5, 250 mM NaCl, 5 mM β-mercaptoethanol; DynaPro MX/S; self-association tested; both purified.
Experiment [2] deals with ECD(1–534), deletion fragment of human Ecdysoneless protein (human) (UniProt O95905). The experiment is described as above.

B1: ECD(1–432), deletion fragment of human Ecdysoneless protein (domain or fragment, UniProt O95905 1-432)
chain: MEETMKLATMEDTVEYCLFLIPDESRDSDKHKEILQKYIERIITRFAPMLVPYIWQNQPFNLKYKPGKGGVPAHMFGVTKFGDNIEDEWFIVYVIKQITKEFPELVARIEDNDGEFLLIEAADFLPKWLDPENSTNRVFFCHGELCIIPAPRKSGAESWLPTTPPTIPQALNIITAHSEKILASESIRAAVNRRIRGYPEKIQASLHRAHCFLPAGIVAVLKQRPRLVAAAVQAFYLRDPIDLRACRVFKTFLPETRIMTSVTFTKCLYAQLVQQRFVPDRRSGYRLPPPSDPQYRAHELGMKLAHGFEILCSKCSPHFSDCKKSLVTASPLWASFLESLKKNDYFKGLIEGSAQYRERLEMAENYFQLSVDWPESSLAMSPGEEILTLLQTIPFDIEDLKKEAANLPPEDDDQWLDLSPDQLDQLLQEAVG
In the case of B1, the binding result in experiment [1] is on record as “no binding”.

B2: ECD(1–534), deletion fragment of human Ecdysoneless protein (domain or fragment, UniProt O95905 1-534)
chain: MEETMKLATMEDTVEYCLFLIPDESRDSDKHKEILQKYIERIITRFAPMLVPYIWQNQPFNLKYKPGKGGVPAHMFGVTKFGDNIEDEWFIVYVIKQITKEFPELVARIEDNDGEFLLIEAADFLPKWLDPENSTNRVFFCHGELCIIPAPRKSGAESWLPTTPPTIPQALNIITAHSEKILASESIRAAVNRRIRGYPEKIQASLHRAHCFLPAGIVAVLKQRPRLVAAAVQAFYLRDPIDLRACRVFKTFLPETRIMTSVTFTKCLYAQLVQQRFVPDRRSGYRLPPPSDPQYRAHELGMKLAHGFEILCSKCSPHFSDCKKSLVTASPLWASFLESLKKNDYFKGLIEGSAQYRERLEMAENYFQLSVDWPESSLAMSPGEEILTLLQTIPFDIEDLKKEAANLPPEDDDQWLDLSPDQLDQLLQEAVGKKESESVSKEEKEQNYDLTEVSESMKAFISKVSTHKGAELPREPSEAPITFDADSFLNYFDKILGPRPNESDSDDLDDEDFECLDSDDDLDFETHEPGEEAS
B2: the binding entry in experiment [2] was “no binding”.
